The other results are listed elsewhere or left out. Many values rest on one well or one pass, so single values are uncertain.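 The apoptosis fraction was the count of cleaved-PARP antibody-stained nuclei relative to all DNA-stained nuclei, imaged in 1,536-well plates. Screening doses were set so most cells survived, and baseline and induced cleaved-PARP levels vary greatly across cell lines.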
Assays:
Experiment in all cases: cleaved PARP positive nuclei fraction relative to DMSO control; melanoma cells; higher = more apoptosis
Settings in all cases: library dose: low library concentration; 72 h
WM115 = tested on: WM115
WM1716 = tested on: WM1716
WM1745 = tested on: WM1745
WM3526 = tested on: WM3526
WM3619 = tested on: WM3619
WM451Lu = tested on: WM451Lu

Structure (SMILES) | cleaved PARP positive nuclei fraction (WM115) [%] | cleaved PARP positive nuclei fraction (WM1716) [%] | cleaved PARP positive nuclei fraction (WM1745) [%] | cleaved PARP positive nuclei fraction (WM3526) [%] | cleaved PARP positive nuclei fraction (WM3619) [%] | cleaved PARP positive nuclei fraction (WM451Lu) [%]
COc1ccc(C2=N[C@@H](c3ccc(Cl)cc3)[C@@H](c3ccc(Cl)cc3)N2C(=O)N2CCNC(=O)C2)c(OC(C)C)c1 [Nutlin-3] + COc1cc2ncnc(Nc3ccc(Oc4ccccc4)cc3)c2cc1OC [SrcI1] (first compound 0.1 µM, partner dose 2 µM) | 124 | 92.4 | 98 | 161 | 99.3 | 37.3
NC1(c2ccc(-c3nc4ccn5c(=O)[nH]nc5c4cc3-c3ccccc3)cc2)CCC1 + Cc1cc([N+](=O)[O-])ccc1NS(=O)(=O)c1cc(Cl)ccc1Cl [FH535] (first compound 0.4 µM, partner dose 1 µM) | 102 | 94.3 | 90.7 | 89.5 | 96 | 34.7
CC1(C)CCC(c2ccc(Cl)cc2)=C(CN2CCN(c3ccc(C(=O)NS(=O)(=O)c4ccc(N[C@H](CCN5CCOCC5)CSc5ccccc5)c(S(=O)(=O)C(F)(F)F)c4)cc3)CC2)C1 + CC(=O)c1c(C)c2cnc(Nc3ccc(N4CCNCC4)cn3)nc2n(C2CCCC2)c1=O [palbociclib] (first compound 0.4 µM, partner dose 0.04 µM) | 233 | 75.2 | 511 | 54.9 | 139 | 59.2
CCN(CC)CCNC(=O)c1c(C)[nH]c(/C=C2\C(=O)Nc3ccc(F)cc32)c1C [sunitinib] + CNC(=O)c1cc(Oc2ccc(NC(=O)Nc3ccc(Cl)c(C(F)(F)F)c3)cc2)ccn1 [sorafenib] (first compound 0.4 µM, partner dose 0.4 µM) | 121 | 94.5 | 131 | 102 | 73.5 | 26.8
CCN(CC)CCNC(=O)c1c(C)[nH]c(/C=C2\C(=O)Nc3ccc(F)cc32)c1C [sunitinib] + COc1cc(N2CCC(N3CCN(C)CC3)CC2)ccc1Nc1ncc(Cl)c(Nc2ccccc2S(=O)(=O)C(C)C)n1 [NVP-TAE684] (first compound 0.4 µM, partner dose 0.08 µM) | 134 | 305 | 127 | 140 | 71 | 51.1
COc1ccc(C2=N[C@@H](c3ccc(Cl)cc3)[C@@H](c3ccc(Cl)cc3)N2C(=O)N2CCNC(=O)C2)c(OC(C)C)c1 [Nutlin-3] + CCCS(=O)(=O)Nc1ccc(F)c(C(=O)c2c[nH]c3ncc(Cl)cc23)c1F [PLX4720] (first compound 0.1 µM, partner dose 0.08 µM) | 104 | 31.6 | 80.2 | 109 | 77.3 | 27.3
CS(=O)(=O)c1ccc(C(=O)Nc2ccc(Cl)c(-c3ccccn3)c2)c(Cl)c1 [vismodegib] + C[C@@H]1CCN(C(=O)CC#N)C[C@@H]1N(C)c1ncnc2[nH]ccc12 [CP690550] (first compound 1 µM, partner dose 1 µM) | 208 | 69.2 | 95.3 | 124 | 105 | 132
NC1(c2ccc(-c3nc4ccn5c(=O)[nH]nc5c4cc3-c3ccccc3)cc2)CCC1 + N#Cc1c(O)c2c(-c3ccc(-c4ccccc4O)cc3)csc2[nH]c1=O [A769662] (first compound 0.4 µM, partner dose 2 µM) | 250 | 66.5 | 84.6 | 185 | 74.2 | 70.2
CC1(C)CCC(c2ccc(Cl)cc2)=C(CN2CCN(c3ccc(C(=O)NS(=O)(=O)c4ccc(N[C@H](CCN5CCOCC5)CSc5ccccc5)c(S(=O)(=O)C(F)(F)F)c4)cc3)CC2)C1 + Cc1cc(Nc2cc(N3CCN(C)CC3)nc(/C=C/c3ccccc3)n2)n[nH]1 [ENMD2076] (first compound 0.4 µM, partner dose 0.04 µM) | 308 | 131 | 2450 | 451 | 138 | 113
NC1(c2ccc(-c3nc4ccn5c(=O)[nH]nc5c4cc3-c3ccccc3)cc2)CCC1 + O=C(CCCCCCC(=O)Nc1ccccc1)NO [vorinostat] (first compound 0.4 µM, partner dose 0.08 µM) | 83.1 | 32.3 | 90.7 | 78.3 | 136 | 217
Cn1sc(=O)n(Cc2ccccc2)c1=O + NC1(c2ccc(-c3nc4ccn5c(=O)[nH]nc5c4cc3-c3ccccc3)cc2)CCC1 [MK2206] (first compound 0.4 µM, partner dose 0.4 µM) | 221 | 91.1 | 85.8 | 284 | 108 | 111
NC1(c2ccc(-c3nc4ccn5c(=O)[nH]nc5c4cc3-c3ccccc3)cc2)CCC1 + CCCCCCCCCCCC1=C(O)C(=O)C=C(O)C1=O [Embelin] (first compound 0.4 µM, partner dose 1.2 µM) | 104 | 48 | 104 | 209 | 97.5 | 75.2

Two entries from above in another layout:
Structure (SMILES),cleaved PARP positive nuclei fraction (WM115) [%],cleaved PARP positive nuclei fraction (WM1716) [%],cleaved PARP positive nuclei fraction (WM1745) [%],cleaved PARP positive nuclei fraction (WM3526) [%],cleaved PARP positive nuclei fraction (WM3619) [%],cleaved PARP positive nuclei fraction (WM451Lu) [%]
"CS(=O)(=O)c1ccc(C(=O)Nc2ccc(Cl)c(-c3ccccn3)c2)c(Cl)c1 [vismodegib] + C[C@@H]1CCN(C(=O)CC#N)C[C@@H]1N(C)c1ncnc2[nH]ccc12 [CP690550] (first compound 1 µM, partner dose 1 µM)",208,69.2,95.3,124,105,132
"NC1(c2ccc(-c3nc4ccn5c(=O)[nH]nc5c4cc3-c3ccccc3)cc2)CCC1 + CCCCCCCCCCCC1=C(O)C(=O)C=C(O)C1=O [Embelin] (first compound 0.4 µM, partner dose 1.2 µM)",104,48,104,209,97.5,75.2
